No constants are given. Whether binding was seen depends on the method and setting. In cells and extracts the contact can be indirect. These calls come from enrichment with a bait or labelling near it, and not all partners need be listed.
Columns and labels:
[1] = molecular target: flag-tagged Eif4a2^FL (mouse) (UniProt P10630); assay: affinity purification with mass spectrometry
[2] = molecular target: flag-tagged Eif4a2^PTC (mouse); assay: affinity purification with mass spectrometry

Protein sequences, listed by entry. Tags and fused reporters are not part of them.
UniProt P10630: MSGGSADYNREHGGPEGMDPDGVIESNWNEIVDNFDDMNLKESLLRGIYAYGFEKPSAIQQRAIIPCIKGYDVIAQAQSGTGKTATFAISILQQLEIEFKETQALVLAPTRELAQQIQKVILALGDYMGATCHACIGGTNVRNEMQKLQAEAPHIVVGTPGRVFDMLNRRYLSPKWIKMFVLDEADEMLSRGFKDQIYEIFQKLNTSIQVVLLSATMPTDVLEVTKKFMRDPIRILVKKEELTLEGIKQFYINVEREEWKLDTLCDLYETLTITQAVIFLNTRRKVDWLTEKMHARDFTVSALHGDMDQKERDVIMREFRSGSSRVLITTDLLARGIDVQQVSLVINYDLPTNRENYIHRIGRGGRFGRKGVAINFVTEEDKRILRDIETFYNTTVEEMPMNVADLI

binding [1]: binds
binding [2]: binds
B1: Eif4enif1 (protein, UniProt Q9EST3 1-983)
chain: MEKSVAETENGDAFLELKKLPTSKSPHRYTKEELLDIKERPYSKQRPSCLSEKYDSDGVWDPEKWHASLYPASGRSSPVESLKKESESDRPSLVRRIADPRERVKEDDLDVVLSPQRRSFGGGCHVTAAVSSRRSGSPLEKDSDGLRLLGGRRIGSGRIISARAFEKDHRLSDKDLRDLRDRDRERDYKDKRFRREFGDSKRVFGERRRNDSYTEEEPEWFSAGPTSQSETIELTGFDDKILEEDHKGRKRTRRRTASVKEGIVECNGGVAEEDEVEVILAQEPSADQEVPRDVILPEQSPGEFDFNEFFNLDKVPCLASMIEDVLGEGSVSASRFSRWFSNPSRSGSRSSSLGSTPHEELERLAGLEQAVLSPGQNSGNYFAPIPSEDHAENKVDILEMLQKAKVDLKPLLSSLSANKEKLKESSHSGVVLSVEEVEAGLKGLKVDQQMKNSTPFMAEHLEETLSAASSNRQLKKDGDMTAFNKLVNTMKASGTLPTQPKVSRNVESHLLAPAEIPGQPVSKNILQELLGQPVQRPASSNLLSGLMGSLEATASLLSQRAPSPPMSQVFRTQAASADYLHPRIPSPIGFPSGPQQLLGDPFQGMRKPMSPVSAQMSQLELQQAALEGLALPHDLAVQTAPFYQPGFSKPQVDRTRDGLRNRQQRMSKSPAPMHGGNSSSPAPAASITSMLSPSFTPTSVIRKMYESREKTKEEMAPGMVVPGDGKEDTQKTSEENLLSSNPIPNTDQDSSTTNPKLSTLQRSSCSTPLSQTSRYTKEQDYRPKTAGRKTPTLASPVPGTPFLRPTHQVPLVPHVPIVRPAHQLHPGLVQRLIAQGVHPQHLPSLLQAGVLPPGIDMAPLQGLSGPLLGQPLYPLVSAASHPLLNPRPGTPLHLAVMQQQLQRSVLHPPGSSSQAAAISVQTPQNVPSRSGMPHMHSQLEHRTSQRSSSPVGLAKWFGSDVLQQPLPSMPTKVISVDELEYRQ

— paper doi:10.1101/2020.07.07.180133
